Experimental data published in PubChem BioAssay AID504648 (National Center for Advancing Translational Sciences (NCATS), 2011).
About 610 (0.16%) of roughly 390,000 compounds were called active. The shares of active, inactive and inconclusive entries below differ from those in the screen. Calls come from the whole dose curve; as a rule, active = well fitted inhibition curve with a large enough effect; inconclusive = small, poorly fitted or top-dose-only effect, or effect the other way, or another doubt; inactive = no such curve, though single readings can be large or run the other way. Where the call is inconclusive, the potency comes from a doubtful curve fit.

test: Nrf2 qHTS screen for inhibitors: counterscreen for cytotoxicity; conditions: A549 ARE-Fluc cells, CellTiter-Fluor viability, 18-24 h; series mostly up to 46 µM; activity change, negative = cytotoxicity: at the top concentration
Procedure, shortened: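 A549 ARE_Fluc cells in 5% FBS OPTI-MEM were exposed to compounds in concentration-response for 18-24 h at 37 deg C. Viability was read by CellTiter-Fluor fluorescence (Ex 405/Em 525) after 30 min, before the luciferase read.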
% is set by controls: 0 for no effect and ±100 for the full control effect; potency is the fitted concentration of half-maximal effect.

Row | Structure (SMILES) | Potency | activity change, negative = cytotoxicity
1 | O=C(c1ccc2c(c1)ncn2C1CCCCC1)N1CCC2(CC1)OCCO2 | inconclusive: 8.2 µM [falling, partial curve] | –
2 | CCN1CCN(Cc2cc(Br)ccc2O)CC1 | – | inactive: 3.57%
3 | CCOc1cccc(=NC2CCCCC2)c2c(C)n(C)c(C)c12 | inconclusive: 25.9 µM [falling, single point] | –
4 | Cc1cccc(-c2nc3ccc(C(=O)N4CCC5(CC4)OCCO5)cc3nc2-c2cccc(C)c2)c1 | inconclusive: 29.1 µM [falling, single point] | –
5 | CC1Oc2cc3c(-c4c(O)cc(O)c5c(O)c6c(cc45)OC(C)C(C)C6=O)c(O)cc(O)c3c(O)c2C(=O)C1C (centres undefined) | inconclusive: 9.2 µM [falling, partial curve] | –
6 | CCN(CC)S(=O)(=O)c1ccc(NN=C(C#N)C#N)cc1 | inconclusive: 29.1 µM [falling, partial curve, poor fit] | –
7 | C[C@H]1CCC/C=C/C2C[C@H](O)CC2[C@H](O)/C=C/C(=O)O1 (some centres undefined) | inconclusive: 0.184 µM [falling, full curve] | –
8 | CCCCCCCSc1cc(OC)c(CCNC)cc1OC | – | inactive: -5.43%
9 | COC(=O)C1=C(c2ccc(F)cc2OCc2ccccc2)C[C@@H]2CC[C@H]1N2C(=O)NCc1ccc(C)cc1 | inconclusive: 8.2 µM [falling, partial curve] | –
10 | CCOP(=S)(OCC)SCSP(=S)(OCC)OCC | inconclusive: 18.4 µM [activator, partial curve, poor fit] | –
11 | CCN(CCCNS(=O)(=O)c1ccc2c(c1)oc(=O)n2C)c1cccc(C)c1 | inconclusive: 6.51 µM [activator, single point] | –
12 | Ic1ccccc1CN[C@@H]1C2CCN(CC2)[C@@H]1C(c1ccccc1)c1ccccc1 | inconclusive: 32.6 µM [falling, partial curve, poor fit] | –
13 | Nc1ccc(N=Nc2ccccc2)cc1 | inconclusive: 25.9 µM [falling, single point] | –
14 | C=Cc1cc(OC)c2c(c1)c(=O)oc1c2cc(OC)c2c(O)ccc(C3OC(C)C(O)C(C)(O)C3O)c21 (centres undefined) | active: 5.17 µM | –
15 | Cc1cccc(C)c1NC(=O)c1cccn(Cc2ccc3c(c2)OC(F)(F)O3)c1=O | – | inactive: 2.36%
16 | CC(=O)O[C@H]1C(=O)[C@@]2(C)C([C@H](OC(=O)c3ccccc3)[C@]3(O)C[C@H](OC(=O)[C@H](O)[C@@H](NC(=O)Cc4ccccc4)c4ccccc4)C(C)=C1C3(C)C)[C@]1(OC(C)=O)CO[C@@H]1C[C@@H]2O (some centres undefined) | inconclusive: 6.51 µM [falling, partial curve, poor fit] | –
17 | Cc1ccc(P(=O)(O)c2ccc(C)cc2)cc1 | inconclusive: 23.1 µM [falling, single point] | –
18 | COc1cc2c(cc1OC)-c1c(OC)c(OC)c(OC)c3ccnc(c13)C2=O | inconclusive: 16.4 µM [falling, partial curve] | –
19 | CN1C(=O)C(=Cc2sc(=O)n(-c3ccccc3)c2N(C)C)C(=O)N(C)C1=O | inconclusive: 23.1 µM [falling, partial curve, poor fit] | –
20 | O=C1NC(=O)C(CCc2ccncc2)(Cc2cccc(Cl)c2Cl)C(=O)N1c1ccc(Br)cc1 (centres undefined) | inconclusive: 16.4 µM [falling, partial curve] | –

Row | Structure (SMILES) | Potency | activity change, negative = cytotoxicity
21 | Cc1[nH]n(-c2ccccc2)c(=O)c1C(c1ccc([N+](=O)[O-])cc1)c1c(C)[nH]n(-c2ccccc2)c1=O | – | inactive: -14.6%
22 | CN(C)c1ccc([N+](=O)[O-])c([N+](=O)[O-])c1 | inconclusive: 20.6 µM [falling, partial curve] | –
23 | COc1cc(/C=C/[N+](=O)[O-])ccc1O | inconclusive: 29.1 µM [falling, single point] | –
24 | C[C@]12CCC(=O)C=C1C=CC1C2CC[C@@]2(C)C1CC[C@@H]2O (some centres undefined) | – | inactive: 3.32%
25 | Cc1ccc(C2CC(=O)C(C=NCCN3CCN(C(=O)Cc4ccccc4)CC3)=C(O)C2)cc1 (centres undefined) | – | inactive: 7.64%
26 | COC(=O)C1=C(c2ccc(OC(F)(F)F)cc2)C[C@@H]2CC[C@H]1N2C(=O)NCc1ccc(F)cc1 | inconclusive: 32.6 µM [falling, partial curve, poor fit] | –
27 | COCCCn1c(N)c(C(=O)Nc2ccccc2)c2nc3ccccc3nc21 | – | inactive: -14.2%
28 | C[C@]12CCC3[C@@H](CC[C@@H]4C[C@H](O)CC[C@]34C)[C@@H]1CCC2=O (some centres undefined) | – | inactive: 0.0318%
29 | CC1=C(O)C(=O)C=C2C1=CC=C1C2(C)CCC2(C)C3CC(C)(C(=O)O)CCC3(C)CCC12C (centres undefined) | inconclusive: 18.4 µM [falling, single point] | –
30 | CC[n+]1c(SC)ccc2cc(OC)ccc21 | inconclusive: 23.1 µM [falling, single point] | –
31 | CC(C)C(NC(=O)C(C(C)C)N(C)C)C(=O)N(C)C(C(=O)N1CCCC1C(=O)N1CCCC1C(=O)NCc1ccccc1)C(C)C (centres undefined) | inconclusive: 8.2 µM [falling, partial curve, poor fit] | –
32 | CCOC(=O)C(O)(c1ccc(NC(=S)NC(=O)c2ccc(Cl)cc2Cl)cc1)C(F)(F)F (centres undefined) | inconclusive: 23.1 µM [falling, single point] | –
33 | COc1ccc(CN2C(=O)NC(=O)/C(=C\c3cccc(OC)c3OC)C2=O)cc1 | – | inactive: 0.927%
34 | CC(C)n1c(O)c(C2c3cc(Cl)ccc3Oc3[nH]c(=O)n(C(C)C)c(=O)c32)c(=O)[nH]c1=O (centres undefined) | inconclusive: 29.1 µM [falling, single point] | –
35 | CC1OC(OC2C=C3CCC4C(CCC5(C)C(c6ccc(=O)oc6)CCC45O)C3(C)CC2)C(O)C(OC2OC(CO)C(O)C(O)C2O)C1O (centres undefined) | inconclusive: 0.517 µM [falling, full curve] | –
36 | O=C1NC(=O)N(CCC2=CCCCC2)C(=O)/C1=C/c1ccc(O)cc1 | – | inactive: 5.86%
37 | C/C(CC(c1ccccc1)c1c(O)c2ccccc2oc1=O)=N\Nc1ccc([N+](=O)[O-])cc1[N+](=O)[O-] (centres undefined) | inconclusive: 18.4 µM [falling, single point] | –
38 | CN(C)C(Cc1ccccc1)C(=O)c1ccc(-c2ccccc2)cc1 (centres undefined) | inconclusive: 13 µM [falling, partial curve] | –
39 | CCc1ccc(N2C(=O)NC(=O)/C(=C\C=C\c3ccco3)C2=O)cc1 | inconclusive: 29.1 µM [falling, partial curve, poor fit] | –
